PubChem BioAssay AID1259254, NCATS | 2017

Test: 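Gene knock-downs that lead to re-replication, shown by excess G2 DNA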 (primary screen)
System: human HCT116 colorectal cancer cells
Knock-down reagent: single siRNA against human genes
Timing: 3 days
Measurement: 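Nuclei stained with Hoechst and imaged; cell-cycle phase assigned by DNA content; G2 share scaled per plate, non-targeting siRNA 0%, GMNN siRNA 100%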
Reading the numbers: G2 robust z-score: higher = more G2 cells, more excess DNA replication
Rule for the call: 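An siRNA counts as active if its G2 robust z-score lies at least 5 MADs above the screen median; here such calls match roughly 38% of GMNN control or more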
The whole screen tested about 59,000 reagents; shown is a random part of them. About 1,550 of all reagents (2.6%) were called active. 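G2 share is only a proxy for re-replication; each gene was hit by three separate siRNAs, and active genes were retested.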 Reagents against one gene are numbered here. Further read-outs or replicates are left out here. Not given: the amount of reagent.

{"target":"GMNC","reagent":1,"G2 robust z-score":-0.186,"activity call":"inactive"}
{"target":"GMNC","reagent":2,"G2 robust z-score":-0.2,"activity call":"inactive"}
{"target":"GMNC","reagent":3,"G2 robust z-score":2.65,"activity call":"inactive"}
{"target":"ZNF37A","reagent":1,"G2 robust z-score":0.11,"activity call":"inactive"}
{"target":"ZNF37A","reagent":2,"G2 robust z-score":0.251,"activity call":"inactive"}
{"target":"ZNF37A","reagent":3,"G2 robust z-score":-0.976,"activity call":"inactive"}
{"target":"ZRANB3","reagent":1,"G2 robust z-score":-0.0291,"activity call":"inactive"}
{"target":"ZRANB3","reagent":2,"G2 robust z-score":0.0716,"activity call":"inactive"}
{"target":"ZRANB3","reagent":3,"G2 robust z-score":0.00948,"activity call":"inactive"}
{"target":"PMS2P3","reagent":1,"G2 robust z-score":-0.513,"activity call":"inactive"}
{"target":"PMS2P3","reagent":2,"G2 robust z-score":0.237,"activity call":"inactive"}
{"target":"PMS2P3","reagent":3,"G2 robust z-score":-0.207,"activity call":"inactive"}
{"target":"RCCD1","reagent":1,"G2 robust z-score":0.75,"activity call":"inactive"}
{"target":"RCCD1","reagent":2,"G2 robust z-score":2.51,"activity call":"inactive"}
{"target":"RCCD1","reagent":3,"G2 robust z-score":0.902,"activity call":"inactive"}
{"target":"CDKN2D","reagent":1,"G2 robust z-score":-0.932,"activity call":"inactive"}
{"target":"CDKN2D","reagent":2,"G2 robust z-score":3.66,"activity call":"inactive"}
{"target":"CDKN2D","reagent":3,"G2 robust z-score":-1.14,"activity call":"inactive"}
{"target":"CLEC1A","reagent":1,"G2 robust z-score":-1.28,"activity call":"inactive"}
{"target":"CLEC1A","reagent":2,"G2 robust z-score":0.676,"activity call":"inactive"}
{"target":"CLEC1A","reagent":3,"G2 robust z-score":0.968,"activity call":"inactive"}
{"target":"ZNF626","reagent":1,"G2 robust z-score":0.156,"activity call":"inactive"}
{"target":"ZNF626","reagent":2,"G2 robust z-score":-1.32,"activity call":"inactive"}
{"target":"ZNF626","reagent":3,"G2 robust z-score":2.98,"activity call":"inactive"}
